According to paper PMC9429723 (Journal of Nanobiotechnology, 2022):
Strings that start with PEPTIDE1 are HELM notation: dots part the residues, brackets hold end groups and non-standard residues.

Experiment: general procedure: Fmoc solid-phase peptide synthesis; 2-chlorotrityl chloride resin
Conditions: whole synthesis

Substance | isolated yield [%]
PEPTIDE1{[Nap].[dF].[dF].Y.[CS].D.E.V.D.[BSO]}$$$$V2.0 | 18.18
PEPTIDE1{[Nap].[dF].[dF].Y.[CS].D.E.V.D}$$$$V2.0 | 24.7
PEPTIDE1{[Nap].[dF].[dF].Y.[HDA].D.E.V.D.[BSO]}$$$$V2.0 | 15.69
